Results published in US20210179680A1, “POLYPEPTIDE, DERIVATIVES THEREOF, AND APPLICATION THEREOF IN PREPARATION OF DRUGS HAVING RESISTANCE TO PULMONARY FIBROSIS” (priority 2016, published 2021).
Results are given in words; binding and its absence hold for the method and conditions named. In cells and extracts the contact can be indirect. Some binding calls cover weakened binding; strength is not graded here.

Protein sequences, listed by entry. Tags and fused reporters are not part of them.
UniProt P23804: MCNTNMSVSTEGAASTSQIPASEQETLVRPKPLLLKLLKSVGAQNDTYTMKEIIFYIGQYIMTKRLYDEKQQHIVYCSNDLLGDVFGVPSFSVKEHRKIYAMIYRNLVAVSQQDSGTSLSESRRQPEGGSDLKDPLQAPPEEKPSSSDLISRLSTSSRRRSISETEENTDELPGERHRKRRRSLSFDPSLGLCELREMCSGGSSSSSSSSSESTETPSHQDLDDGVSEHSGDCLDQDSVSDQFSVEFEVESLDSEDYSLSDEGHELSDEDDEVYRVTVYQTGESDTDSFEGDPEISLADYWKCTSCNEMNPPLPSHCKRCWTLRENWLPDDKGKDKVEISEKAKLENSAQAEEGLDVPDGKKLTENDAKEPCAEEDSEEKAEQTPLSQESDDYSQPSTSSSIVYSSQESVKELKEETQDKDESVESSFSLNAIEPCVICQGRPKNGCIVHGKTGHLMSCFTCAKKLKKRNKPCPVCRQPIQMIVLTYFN

Legend:
[1] = target: MDM2 protein in lung tissue of mice with pulmonary fibrosis (mouse) (UniProt P23804); test: co-immunoprecipitation with MDM2 antibody from mouse lung tissue lysate, Western blot
[2] = target: MDM2 protein in lung tissue of mice with pulmonary fibrosis (mouse) (UniProt P23804); test: co-immunoprecipitation with MDM2 antibody from mouse lung tissue lysate

binding [1]: binds
binding [2]: binds
B1: TRB3 protein in lung tissue of mice with pulmonary fibrosis (protein, mouse, UniProt Q8K4K2 1-354, looked up)
chain: MRATPLAASADVSCRKKPLEFDDNIDAKCPVLKRVRDEPEPGPLPSLLPPSPPPASDLSPAVAPATRLGPYILLEREQGSCSYRALHCPTGTEYTCKVYPASEAQAVLAPYARLPTHQHVARPTEVLLGSRLLYIFFTKTHGDLHSLVRSRRGIPESEAAGLFRQMASAVAHCHKHGLVLRDLKLRRFVFSNCERTKLVLENLEDACVMTGSDDSLWDKHACPAYVGPEILSSRPSYSGKAADVWSLGVALFTMLAGRYPFHDSEPVLLFGKIRRGTFALPEGLSAPARCLIRCLLRKEPSERLVALGILLHPWLREDHGRVSPPQSDRREMDQVVPDGPQLEEAEEGEVGLYG
